These are yes or no findings as the source states them, for the method shown. Some entries that bind do so weakly or less than the wild type. Tags and fused reporters may be left off the sequences shown.
T1: Recombinant truncated human CD2 (human, UniProt P06729 25-209, limits assumed)
T1 construct: Bought; also called LFA2
T1 sequence (looked up): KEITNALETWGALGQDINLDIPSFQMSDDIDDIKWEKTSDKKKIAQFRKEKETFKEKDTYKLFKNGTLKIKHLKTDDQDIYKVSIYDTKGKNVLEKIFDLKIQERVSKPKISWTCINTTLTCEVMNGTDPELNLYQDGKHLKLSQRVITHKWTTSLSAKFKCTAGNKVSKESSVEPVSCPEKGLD

B1: Siplizumab (humanized anti-CD2 IgG1κ) (antibody, V domains shown)
VH: QVQLVQSGAEVQRPGASVKVSCKASGYIFTEYYMYWVRQAPGQGLELVGRIDPEDGSIDYVEKFKKKVTLTADTSSSTAYMELSSLTSDDTAVYYCARGKFNYRFAYWGQGTLVTVSS
VL: DVVMTQSPPSLLVTLGQPASISCRSSQSLLHSSGNTYLNWLLQRPGQSPQPLIYLVSKLESGVPDRFSGSGSGTDFTLKISGVEAEDVGVYYCMQFTHYPYTFGQGTKLEIK
notes: also called MEDI-507; anti-CD2 Ab1
B2: CD2-binding molecule 1 (a deglycosylated CD2-binding molecule) (antibody, V domains shown)
VH: B1 VH
VL: B1 VL
modifications: Fc N-glycan removed with EndoS2 (GlycINATOR)
notes: produced with GlycINATOR (EndoS2)
B3: CD2-binding molecule 2 (Fc-silent (FcS) anti-CD2 IgG1) (antibody, V domains shown)
VH: B1 VH
VL: B1 VL
notes: IgG1 with LALA-PG mutations at equivalent sites in siplizumab; made in CHO-K1 cells; also called Fc-silent Siplizumab
B4: CD2-binding molecule 3 (FcS anti-CD2 IgG2) (antibody, V domains shown)
VH: B1 VH
VL: B1 VL
notes: Standard IgG2 framework with V234A, G237A, P238S, H268A, V309L, A330S, P331S; made in CHO-K1 cells
B5: CD2-binding molecule 4 (FcS anti-CD2 IgG4) (antibody, V domains shown)
VH: B1 VH
VL: B1 VL
notes: Standard IgG4 framework with S228P, L235E, P329G; made in CHO-K1 cells

Molecular target: T1, Recombinant truncated human CD2
Assay: SPR (Biacore T200), IgG immobilised, CD2 injected

binding, binds:
B1
B2
B3
B4
B5

Reference: US20240270845A1 (ZELARION MALTA, published 2024)
